Results taken from PubChem BioAssay AID1259354 (Paczesny and Yang Labs, IUPUI and University of Michigan, 2018).
Among all 78,000 compounds or so, about 1,800 (2.3%) were called active. Inconclusive means that the source gave no clear call. Such entries were picked first, then a sample of the others. Rule as the data show it: active = inhibition above about 30%; inconclusive = mostly about 10% to 28%; inactive = weaker than that.

Chains of the proteins cited; added tags and fusions are not shown. Lines headed by an entry give the natural chain unless they say otherwise; changes in a name come on top.
UniProt Q01638: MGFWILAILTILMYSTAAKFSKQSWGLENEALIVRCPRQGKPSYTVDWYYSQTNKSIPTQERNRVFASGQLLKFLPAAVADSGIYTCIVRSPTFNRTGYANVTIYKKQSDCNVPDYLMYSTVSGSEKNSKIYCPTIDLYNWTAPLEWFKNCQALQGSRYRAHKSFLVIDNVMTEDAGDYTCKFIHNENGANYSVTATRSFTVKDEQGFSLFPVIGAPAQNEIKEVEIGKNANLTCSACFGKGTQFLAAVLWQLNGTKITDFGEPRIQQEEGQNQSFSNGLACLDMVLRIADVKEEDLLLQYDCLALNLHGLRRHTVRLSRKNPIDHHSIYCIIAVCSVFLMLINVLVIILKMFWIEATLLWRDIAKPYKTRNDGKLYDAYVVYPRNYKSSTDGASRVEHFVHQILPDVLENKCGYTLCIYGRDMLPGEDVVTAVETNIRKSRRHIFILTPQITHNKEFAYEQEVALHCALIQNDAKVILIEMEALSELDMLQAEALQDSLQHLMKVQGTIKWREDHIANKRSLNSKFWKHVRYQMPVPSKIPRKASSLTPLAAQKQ

target: Interleukin-1 receptor-like 1 (Homo sapiens) (UniProt Q01638); test: blocks human ST2 binding to IL-33, primary screen, biochemical, AlphaLISA (AID 1259354); settings: AlphaLISA ST2-Fc/biotin-IL-33 interaction, 1 h; at 17 µM, hits give high values

Question: For CCCC(=O)NC(c1ccc(C(C)C)cc1)c1cc([N+](=O)[O-])c2cccnc2c1O (stereo unspecified), which inhibition is on record?
Answer: inconclusive: 27%

Question: Which inhibition does the source give for O=C1OC2(CCCC2)OC(=O)C1=Cc1cc(Cl)c(O)c(Cl)c1 here?
Answer: inactive

Question: CC1N=C2c3ccccc3N=C(SCC(=O)c3ccc(F)cc3)N2C1=O (stereo unspecified) was tested. Which inhibition did it give?
Answer: inactive

Question: How did the inhibition turn out when CC(=O)N1N=C(c2ccccc2)CC1c1cc2cc3c(cc2nc1Cl)OCO3 (stereo unspecified) was run?
Answer: inconclusive: 15%

Question: With O=C1C2C3c4ccccc4C(c4ccccc43)C2C(=O)N1c1ccc2c(c1)OCO2 (stereo unspecified) as the compound, how does the inhibition read?
Answer: inactive

Question: For O=C(CSc1nc2c([nH]c3ccccc32)c(=O)n1-c1cccc(Cl)c1)NCc1ccco1, which inhibition is on record?
Answer: inconclusive: 11%

Question: Which inhibition does the source give for CCOc1cc(/C=C2/NC(=O)NC2=O)cc(Cl)c1OC(C)C here?
Answer: inconclusive: 25%

Question: For O=[N+]([O-])c1cccc2c(Br)[nH]nc12, which inhibition is on record?
Answer: inactive

Question: CN(C)S(=O)(=O)c1ccc(C(=O)NCCSc2c(-c3ccccc3)[nH]c3ccccc23)cc1 was tested. Which inhibition did it give?
Answer: inconclusive: 11%

Question: With COCCN1C(=O)CC(CC(=O)N(C)Cc2cccc3ccccc23)(c2ccccc2Cl)C1=O (stereo unspecified) as the compound, how does the inhibition read?
Answer: inconclusive: 15%

Question: With O=C(Cn1c2ccccc2c(=O)c2ccccc21)Nc1cccnc1Cl as the compound, how does the inhibition read?
Answer: inconclusive: 10%

Question: COc1ccc(CN2CC[C@H](c3nnc(-c4ccco4)o3)C2)cc1 was tested. Which inhibition did it give?
Answer: inconclusive: 23%

Question: How did the inhibition turn out when O=c1oc(-c2ccco2)nc2sc3c(c12)CCC3 was run?
Answer: inconclusive: 25%

Question: For CC(C)(C)NC(=O)C12CC3CC(CC(C3)C1)C2, which inhibition is on record?
Answer: inactive

Question: COc1cccc(Nc2nc(-c3nnc(-c4ccc(C)cc4)o3)nc3ccccc23)c1 was tested. Which inhibition did it give?
Answer: inconclusive: 12%

Question: Which inhibition does the source give for CCOC(=O)c1nn(Cc2ccncc2)c2c1CN(C(=O)CCc1ccc3c(c1)OCO3)CC2 here?
Answer: inconclusive: 22%

Question: COc1ccc(-c2cc(C[C@H]3CNCC[C@H]3CC(=O)N3CCN(c4ccccn4)CC3)no2)cc1 was tested. Which inhibition did it give?
Answer: inactive

Question: How did the inhibition turn out when O=C(NCc1cn[nH]c1-c1cccs1)c1cnn2c1CCCC2 was run?
Answer: inactive

Question: For COC(C#CC(C)(C)N(C)C)(c1ccccc1)c1ccccc1, which inhibition is on record?
Answer: inconclusive: 12%

Question: CC(=O)Nc1ccc(-c2nccn2CCn2cccn2)cc1 was tested. Which inhibition did it give?
Answer: inconclusive: 12%

Question: Which inhibition does the source give for O=S(=O)(NCc1ccccc1)NCc1csc(-c2ncccn2)n1 here?
Answer: inactive

Question: With Clc1ccc(CN2CCC(OCc3cccnc3)CC2)s1 as the compound, how does the inhibition read?
Answer: inactive

Question: Which inhibition does the source give for Cc1ccc(NC(=O)C(=O)Nc2ccccn2)cc1 here?
Answer: inconclusive: 11%

Question: For COc1ccc(-c2csc(/C(C#N)=C\c3ccc(OC)o3)n2)cc1, which inhibition is on record?
Answer: active: 49%

Question: Which inhibition does the source give for COc1cc2c(C(=O)N3CCN(c4ccccn4)CC3)cn(CC(C)C)c(=O)c2cc1OC here?
Answer: inactive

Question: For O=S(=O)(Nc1ccc2c(c1)OCO2)c1ccccc1, which inhibition is on record?
Answer: inconclusive: 13%
